Results: US9686990B2, “Spiroindolinepiperidine derivatives” (priority 2002, dated 2017)
Some of these results come from one statement about several compounds together.

Columns and labels:
Format in all cases: in vivo
[1] = test system: Heliothis virescens (Tobacco Budworm); experiment: Heliothis virescens egg/larva test on artificial diet; conditions: 200 ppm by pipetting, eggs 0-24 h old on artificial diet, 4 days incubation; egg mortality, larval mortality, growth regulation
[2] = test system: Spodoptera littoralis (Egyptian Cotton Leafworm); experiment: Spodoptera littoralis cotton leaf disc spray test; conditions: 200 ppm sprayed on cotton leaf discs, L1 larvae, 3 days after treatment; mortality, repellent effect, feeding behaviour, growth regulation
Description: Test against were performed as follows:
Spodoptera littoralis (Egyptian Cotton Leafworm)

[3] = test system: Aedes aegypti (Yellow Fever Mosquito); conditions: 2 ppm, L2 larvae with nutrition mixture, 2 days; mortality and growth inhibition

O=C(c1ccnc(Cl)c1)N1CC2(CCN(C/C=C/c3ccc(Cl)cc3)CC2)c2cc(F)cc(F)c21 [Compound I-142]
at least 80%: control of Heliothis virescens [1] | control of Spodoptera littoralis [2] | control of Aedes aegypti [3]

O=C(c1ccnc(Cl)c1)N1CC2(CCN(C/C=C/c3ccc(Cl)cc3)CC2)c2c1ccc(F)c2Cl [Compound I-152]
at least 80%: control of Heliothis virescens [1] | control of Spodoptera littoralis [2] | control of Aedes aegypti [3]

O=C(c1ccnc(Cl)c1)N1CC2(CCN(C/C=C/c3ccc(Cl)cc3)CC2)c2cc(F)c(Cl)cc21 [Compound I-162]
at least 80%: control of Heliothis virescens [1] | control of Spodoptera littoralis [2] | control of Aedes aegypti [3]

C#Cc1ccc2c(c1)C1(CCN(C/C=C/c3ccc(Cl)cc3)CC1)CN2C(=O)c1ccnc(Cl)c1 [Compound I-222]
at least 80%: control of Heliothis virescens [1] | control of Spodoptera littoralis [2] | control of Aedes aegypti [3]

COC(=O)c1ccc2c(c1)C1(CCN(C/C=C/c3ccc(Cl)cc3)CC1)CN2C(=O)c1ccnc(Cl)c1 [Compound I-232]
at least 80%: control of Heliothis virescens [1] | control of Spodoptera littoralis [2] | control of Aedes aegypti [3]

Cc1cc2c(cc1Cl)N(C(=O)c1ccnc(Cl)c1)CC21CCN(C/C=C/c2ccc(Cl)cc2)CC1 [Compound I-242]
at least 80%: control of Heliothis virescens [1] | control of Spodoptera littoralis [2] | control of Aedes aegypti [3]

Cc1ccc2c(c1Cl)C1(CCN(C/C=C/c3ccc(Cl)cc3)CC1)CN2C(=O)c1ccnc(Cl)c1 [Compound I-252]
at least 80%: control of Heliothis virescens [1] | control of Spodoptera littoralis [2] | control of Aedes aegypti [3]

Cc1cc(Cl)cc2c1N(C(=O)c1ccnc(Cl)c1)CC21CCN(C/C=C/c2ccc(Cl)cc2)CC1 [Compound I-262]
at least 80%: control of Heliothis virescens [1] | control of Spodoptera littoralis [2] | control of Aedes aegypti [3]

COC(=O)N1CC2(CCN(C/C=C/c3ccc(Cl)cc3)CC2)c2cc(F)ccc21 [II-62]
at least 80%: control of Heliothis virescens [1] | control of Spodoptera littoralis [2] | control of Aedes aegypti [3]

O=C(c1ccncc1)N1CC2(CCN(C/C=C/c3ccc(Cl)cc3)CC2)c2cc(F)ccc21 [VI-62]
at least 80%: control of Heliothis virescens [1] | control of Spodoptera littoralis [2] | control of Aedes aegypti [3]

Cc1ccc2c(c1)C1(CCN(C/C=C/c3ccc(Cl)cc3)CC1)CN2C(=O)c1ccncc1 [VI-202]
at least 80%: control of Heliothis virescens [1] | control of Spodoptera littoralis [2] | control of Aedes aegypti [3]

N#Cc1ccc(C(=O)N2CC3(CCN(C/C=C/c4ccc(Cl)cc4)CC3)c3cc(Cl)ccc32)cc1 [XIX-22]
at least 80%: control of Heliothis virescens [1] | control of Spodoptera littoralis [2] | control of Aedes aegypti [3]

O=C(c1ccc([N+](=O)[O-])s1)N1CC2(CCN(C/C=C/c3ccc(Cl)cc3)CC2)c2cc(Cl)ccc21 [XV-22]
at least 80%: control of Heliothis virescens [1] | control of Spodoptera littoralis [2] | control of Aedes aegypti [3]

CCOC(=O)c1ccc(C(=O)N2CC3(CCN(C/C=C/c4ccc(Cl)cc4)CC3)c3cc(F)ccc32)cc1 [XVII-62]
at least 80%: control of Heliothis virescens [1] | control of Spodoptera littoralis [2] | control of Aedes aegypti [3]

CS(=O)(=O)c1ccc(C(=O)N2CC3(CCN(C/C=C/c4ccc(Cl)cc4)CC3)c3cc(Cl)ccc32)cc1 [XVIII-22]
at least 80%: control of Heliothis virescens [1] | control of Spodoptera littoralis [2] | control of Aedes aegypti [3]

O=C(c1ccc2c(c1)OCO2)N1CC2(CCN(C/C=C/c3ccc(Cl)cc3)CC2)c2cc(Cl)ccc21 [XX-22]
at least 80%: control of Heliothis virescens [1] | control of Spodoptera littoralis [2] | control of Aedes aegypti [3]

O=C(c1ccc2c(c1)OC(F)(F)O2)N1CC2(CCN(C/C=C/c3ccc(Cl)cc3)CC2)c2cc(Cl)ccc21 [XXI-22]
at least 80%: control of Heliothis virescens [1] | control of Spodoptera littoralis [2] | control of Aedes aegypti [3]

O=C(c1ccc2c(c1)OC(F)(F)O2)N1CC2(CCN(C/C=C/c3ccc(Cl)cc3)CC2)c2cc(F)ccc21 [XXI-62]
at least 80%: control of Heliothis virescens [1] | control of Spodoptera littoralis [2] | control of Aedes aegypti [3]

CC1N(C(=O)c2ccnc(Cl)c2)c2ccc(Cl)cc2C12CCN(C/C=C/c1ccc(Cl)cc1)CC2 (stereo not drawn) [XXII-22]
at least 80%: control of Heliothis virescens [1] | control of Spodoptera littoralis [2] | control of Aedes aegypti [3]

COC(=O)c1ccc(C(=O)N2CC3(CCN(C/C=C/c4ccc(Cl)cc4)CC3)c3cc(Cl)ccc32)nc1 [XXIX-93]
at least 80%: control of Heliothis virescens [1] | control of Spodoptera littoralis [2] | control of Aedes aegypti [3]

O=C(c1ccnc(Cl)c1)N1CC2(CCN(C/C=C/c3ccc(Cl)cc3)CC2)c2ccc(OC(F)(F)F)cc21 [XXX-2]
at least 80%: control of Heliothis virescens [1] | control of Spodoptera littoralis [2] | control of Aedes aegypti [3]

CC(=O)N1CC2(CCN(C/C=C/c3ccc(Cl)cc3)CC2)c2c(OC(F)(F)F)cccc21 [XXX-3]
at least 80%: control of Heliothis virescens [1] | control of Spodoptera littoralis [2] | control of Aedes aegypti [3]

O=C(c1ccnc(Cl)c1)N1CC2(CCN(C/C=C/c3ccc(Cl)cc3)CC2)c2c(OC(F)(F)F)cccc21 [XXX-6]
at least 80%: control of Heliothis virescens [1] | control of Spodoptera littoralis [2] | control of Aedes aegypti [3]

O=C(c1ccnc(Cl)c1)N1CC2(CCN(C/C=C/c3ccc(Cl)cc3)CC2)c2ccc(OC(F)(F)C(F)F)cc21 [XXX-7]
at least 80%: control of Heliothis virescens [1] | control of Spodoptera littoralis [2] | control of Aedes aegypti [3]

O=C(c1cc(Br)nc(Br)c1)N1CC2(CCN(C/C=C/c3ccc(Cl)cc3)CC2)c2ccc(OC(F)(F)F)cc21 [XXX-12]
at least 80%: control of Heliothis virescens [1] | control of Spodoptera littoralis [2] | control of Aedes aegypti [3]

O=C(c1cc(Cl)nc(Cl)c1)N1CC2(CCN(C/C=C/c3ccc(Cl)cc3)CC2)c2ccc(OC(F)(F)F)cc21 [XXX-13]
at least 80%: control of Heliothis virescens [1] | control of Spodoptera littoralis [2] | control of Aedes aegypti [3]

O=C(c1cc(Cl)nc(Cl)c1)N1CC2(CCN(C/C=C/c3ccc(Cl)cc3)CC2)c2c(OC(F)(F)C(F)F)cccc21 [XXX-16]
at least 80%: control of Heliothis virescens [1] | control of Spodoptera littoralis [2] | control of Aedes aegypti [3]

O=C(c1cc(Br)nc(Br)c1)N1CC2(CCN(C/C=C/c3ccc(Cl)cc3)CC2)c2c(OC(F)(F)F)cccc21 [XXX-18]
at least 80%: control of Heliothis virescens [1] | control of Spodoptera littoralis [2] | control of Aedes aegypti [3]

O=C(c1cc(Cl)nc(Cl)c1)N1CC2(CCN(C/C=C/c3ccc(Cl)cc3)CC2)c2c(OC(F)(F)F)cccc21 [XXX-19]
at least 80%: control of Heliothis virescens [1] | control of Spodoptera littoralis [2] | control of Aedes aegypti [3]

O=C(c1cccnc1)N1CC2(CCN(C/C=C/c3ccc(Cl)cc3)CC2)c2c(OC(F)(F)F)cccc21 [XXX-20]
at least 80%: control of Heliothis virescens [1] | control of Spodoptera littoralis [2] | control of Aedes aegypti [3]

COc1cc(OC)nc(C(=O)N2CC3(CCN(C/C=C/c4ccc(Cl)cc4)CC3)c3c(OC(F)(F)C(F)F)cccc32)n1 [XXX-24]
at least 80%: control of Heliothis virescens [1] | control of Spodoptera littoralis [2] | control of Aedes aegypti [3]

O=C(c1cccnc1Cl)N1CC2(CCN(C/C=C/c3ccc(Cl)cc3)CC2)c2cccc(OC(F)(F)F)c21 [XXX-26]
at least 80%: control of Heliothis virescens [1] | control of Spodoptera littoralis [2] | control of Aedes aegypti [3]

O=C(c1cccnc1Cl)N1CC2(CCN(C/C=C/c3ccc(Cl)cc3)CC2)c2c(OC(F)(F)C(F)F)cccc21 [XXX-28]
at least 80%: control of Heliothis virescens [1] | control of Spodoptera littoralis [2] | control of Aedes aegypti [3]

O=C(c1ccnc(Cl)c1)N1CC2(CCN(C/C=C/c3ccc(F)cc3)CC2)c2cc(F)ccc21 [XXX-31]
at least 80%: control of Heliothis virescens [1] | control of Spodoptera littoralis [2] | control of Aedes aegypti [3]

O=C(c1ccnc(Cl)c1)N1CC2(CCN(C/C=C/c3ccc(Cl)cc3)CC2)c2ccc(C(F)(F)F)cc21 [XXX-38]
at least 80%: control of Heliothis virescens [1] | control of Spodoptera littoralis [2] | control of Aedes aegypti [3]

O=C(c1ccnc(Cl)c1)N1CC2(CCN(C/C=C/c3ccc(Cl)cc3)CC2)c2cc(Cl)c(Cl)cc21 [XXX-44]
at least 80%: control of Heliothis virescens [1] | control of Spodoptera littoralis [2] | control of Aedes aegypti [3]

O=C(c1ccnc(Cl)c1)N1CC2(CCN(C/C=C/c3ccc(Cl)cc3)CC2)c2c1cccc2C(F)(F)F [XXX-45]
at least 80%: control of Heliothis virescens [1] | control of Spodoptera littoralis [2] | control of Aedes aegypti [3]

CC(C)(C)c1ccc2c(c1)C1(CCN(C/C=C/c3ccc(Cl)cc3)CC1)CN2C(=O)c1ccnc(Cl)c1 [XXX-48]
at least 80%: control of Heliothis virescens [1] | control of Spodoptera littoralis [2] | control of Aedes aegypti [3]

Cc1cc(C)c2c(c1)N(C(=O)c1ccnc(Cl)c1)CC21CCN(C/C=C/c2ccc(Cl)cc2)CC1 [XXX-49]
at least 80%: control of Heliothis virescens [1] | control of Spodoptera littoralis [2] | control of Aedes aegypti [3]
